The values below are quoted from earlier work in patent US20230126411A1, “DEUTERIUM MAGNETIC RESONANCE IMAGING” (University of Florida Research Foundation, Inc., priority 2020, published 2023).

For this series the following is noted: De Feyter et al., cited from earlier work.

Take `OCC1OC(O)C(O)C(O)C1O` (centres unmarked) [[6,6-^2H2]glucose]: under “[6,6-2H2]glucose as tracer”, the “loss of 2H atoms for 2H-lactate” value was ~8%. The “maximum share of HDO generation due to keto-enol tautomerization” value ([6,6-2H2]glucose) is on record as ≤ 8%.
